The text below walks through data of patent US20170158735A1 ("IVIX" Ltd., priority 2012, published 2017).

A short description of this data set: general procedure: solution-phase peptide synthesis; DCC; DCC/BT; OSu active ester. The following applies: acetate; for purity (crude or final not stated): chromatographic (Table 2, Tr and purity %).

Square brackets hold non-standard residues; d marks the D form. Ends that are not written are not given here. * marks the point of attachment. Arg(NO2) = N=C(NCCC[C@H](N)C(=O)O)N[N+](=O)[O-]; Boc = CC(C)(C)OC(=O)*; OBn = c1ccc(CO*)cc1

For Pro-Arg-Pro-Gly-Pro (PRPGP), for the setting “late stage modification step”, the step yield is 75% and the “purity (crude or final not stated)” value is listed as 89%.
Where the note is “coupling step”, Boc-[Arg(NO2)]PGP-OBn displayed a step yield of 85%.
With Thr-Lys-Pro-Arg (TKPR), under “whole synthesis”, the “purity (crude or final not stated)” value is listed as 94%.
Substance Boc-TK(Boc)PF-OH showed a step yield (coupling step) of 69.0%.
The substance Boc-PRPGP showed a step yield (late stage modification step) of 89%.
Where the note is “coupling step”, Boc-P[Arg(NO2)]PGP-OBn showed a step yield of 67.8%.
Take Thr-Lys-Pro-Phe (TKPF): under “late stage modification step”, the step yield came out at 87% and the “purity (crude or final not stated)” value is given as 94%.
Take TKPRPF: the “purity (crude or final not stated)” value (whole synthesis) is reported as 96%.
Under “late stage modification step”, Boc-RPGP had a step yield of 89%.
Arg-Pro-Gly-Pro (RPGP): for the setting “late stage modification step”, the step yield was 85% and the “purity (crude or final not stated)” value was 85%.
As to Thr-Lys-Pro-Arg-Pro (TKPRP), where the note is “whole synthesis”, the “purity (crude or final not stated)” value turned out to be 97%.
